Data as given in PubChem BioAssay AID1508588 (Peter MacCallum Cancer Centre, 2020).

Aim: 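Which gene losses make BRAF-mutant melanoma cells more responsive to vemurafenib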 (primary screen)
Cells: human WM266.4 melanoma cells (BRAF V600 mutant)
Reagents: siRNA pool against human genes, 40 nM
Duration: 96 h from transfection to read-out
Treatment: vemurafenib 300 nM (about IC25), added 48 h after transfection, for 48 h; comparison arm got DMSO vehicle only
Read-out: 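Ratios to non-targeting siRNA for cell gain, counted as DAPI nuclei after minus before drug and averaged over two replicates, and for absorbance-read medium lactate per cell; both binned into fold-change classes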
Reading the numbers: cell gain with vemurafenib: higher = more cell gain than with non-targeting siRNA; lactate per cell with vemurafenib: higher = more lactate made per cell
Call rule: 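a knock-down counts as enhancing when its fold-change classes with vehicle and with vemurafenib, taken together, show a stronger drug effect on cell gain or lactate per cell; exact class pairs not stated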
Calls: active = enhances vemurafenib effect; inactive = no enhancement seen
The whole screen tested about 18,000 reagents; this is an unselected part. 790 of all reagents (4.4%) were called active. 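Calls rest on a combination of fold-change classes in drug and vehicle arms, not all shown here.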 Entries without a mark were called inactive. The numbers tell different reagents against one gene apart.

gene	reagent	cell gain with vemurafenib	lactate per cell with vemurafenib
DCP2 (decapping mRNA 2)	1	1.19	0.88
FATE1 (fetal and adult testis expressed 1)	1	0.3 (active)	0.48
BANK1 (B cell scaffold protein with ankyrin repeats 1)	1	0.83	0.8
KRT1 (keratin 1)	1	0.49	0.98
OR6C76 (olfactory receptor family 6 subfamily C member 76)	1	0.26	0.78
ZC3H11D (zinc finger CCCH-type containing 11D)	1	1.21	0.68
PYDC2 (pyrin domain containing 2)	1	0.53 (active)	0.34
AP3M2 (adaptor related protein complex 3 subunit mu 2)	1	-0.04	2.37
DNAH8 (dynein axonemal heavy chain 8)	1	0.37	1.04
GPR35 (G protein-coupled receptor 35)	1	0.51	1.15
TBCA (tubulin folding cofactor A)	1	0.52	1.22
ACACA (acetyl-CoA carboxylase alpha)	1	0.63	0.75
PPP6R2 (protein phosphatase 6 regulatory subunit 2)	1	0.58	0.78
DIS3L (DIS3 like exosome 3'-5' exoribonuclease)	1	0.53	0.9
MAML3 (mastermind like transcriptional coactivator 3)	1	0.26	1.34
POU4F2 (POU class 4 homeobox 2)	1	1.05	0.89
PPP1R8 (protein phosphatase 1 regulatory subunit 8)	1	0.48	0.72
BCL6 (BCL6 transcription repressor)	1	0.91	0.45
COPE (coat protein complex I subunit epsilon)	1	0.33	1.28
TTLL4 (tubulin tyrosine ligase like 4)	1	0.64	0.74
SLC29A3	1	0.25	0.78
NARS2 (asparaginyl-tRNA synthetase 2, mitochondrial)	1	0.36	1.59
SZT2 (SZT2 subunit of KICSTOR complex)	1	1.1	1.07
SZT2 (SZT2 subunit of KICSTOR complex)	2	0.13 (active)	0.54
FOXO3 (forkhead box O3)	1	0.7	0.9
NT5DC1 (5'-nucleotidase domain containing 1)	1	0.43	1.02
GAS7 (growth arrest specific 7)	1	1.01	0.8
PJA1 (praja ring finger ubiquitin ligase 1)	1	1.13	0.92
ASB8 (ankyrin repeat and SOCS box containing 8)	1	0.76	0.8
NRDC (nardilysin convertase)	1	0.32	1.44
CC2D2A (coiled-coil and C2 domain containing 2A)	1	0.78	1.06
FRMD3 (FERM domain containing 3)	1	0.29	0.78
IER5 (immediate early response 5)	1	0.25	0.74
ATP5MJ (ATP synthase membrane subunit j)	1	0.52	1.56
POLR3K (RNA polymerase III subunit K)	1	0.53	1.05
LRRK1 (leucine rich repeat kinase 1)	1	0.78	0.53
TSPYL4 (TSPY like 4)	1	0.85	0.88
CAD	1	0.81	1.36
INTS9 (integrator complex subunit 9)	1	0.58	0.9
DTNB (dystrobrevin beta)	1	0.58	1.52
TVP23A (trans-golgi network vesicle protein 23 homolog A)	1	0.4	1.49
ADCY5 (adenylate cyclase 5)	1	0.64	0.76
C1orf210 (chromosome 1 open reading frame 210)	1	0.34	1.92
TRIM28 (tripartite motif containing 28)	1	1.01	0.84
ITCH (itchy E3 ubiquitin protein ligase)	1	0.16	2.13
DDX21 (DExD-box helicase 21)	1	0.53	1.37
SLC9A1	1	0.41	1.34
SH3BP1 (SH3 domain binding protein 1)	1	0.62	0.96
PACSIN2 (protein kinase C and casein kinase substrate in neurons 2)	1	0.52	1
CDCA8 (cell division cycle associated 8)	1	-0.23	6.57
CHIC2 (cysteine rich hydrophobic domain 2)	1	0.95	0.74
GAK (cyclin G associated kinase)	1	0.55	0.64
BHMT (betaine--homocysteine S-methyltransferase)	1	0.57	0.7
CEACAM3 (CEA cell adhesion molecule 3)	1	0.75	1
POLG2 (DNA polymerase gamma 2, accessory subunit)	1	0.91	1.68
STT3A (STT3 oligosaccharyltransferase complex catalytic subunit A)	1	0.1	0.22
MAP2K7 (mitogen-activated protein kinase kinase 7)	1	0.37 (active)	0.44

No new results follow: an excerpt of the list.
gene	reagent	cell gain with vemurafenib	lactate per cell with vemurafenib
NT5DC1 (5'-nucleotidase domain containing 1)	1	0.43	1.02
GAS7 (growth arrest specific 7)	1	1.01	0.8
PJA1 (praja ring finger ubiquitin ligase 1)	1	1.13	0.92
ASB8 (ankyrin repeat and SOCS box containing 8)	1	0.76	0.8
NRDC (nardilysin convertase)	1	0.32	1.44
CC2D2A (coiled-coil and C2 domain containing 2A)	1	0.78	1.06
